Measurements published in paper PMC7819943, “Rice protein-binding microarrays: a tool to detect cis-acting elements near promoter regions in rice”.
The other results are listed elsewhere or left out.

molecular target: T1, OsSMF1 (Oryza sativa, UniProt Q6ZLB0 1-436); experiment: protein-binding microarray (RPBM); PBS, 2% BSA, 51.3 ng/ul salmon testes DNA, 50 uM zinc acetate, 200 nM TF, 25 C, 1 h; high values mean tight binding; conditions: protein: recombinant; tags: N-terminal polyhistidine and DsRed monomer fusion (pET32a); chain copies: 2; label: CyDye5-dUTP incorporated in the synthesized complementary strand; 3' TTTTT single-stranded linker to array surface; dsDNA, one strand shown
T1 sequence: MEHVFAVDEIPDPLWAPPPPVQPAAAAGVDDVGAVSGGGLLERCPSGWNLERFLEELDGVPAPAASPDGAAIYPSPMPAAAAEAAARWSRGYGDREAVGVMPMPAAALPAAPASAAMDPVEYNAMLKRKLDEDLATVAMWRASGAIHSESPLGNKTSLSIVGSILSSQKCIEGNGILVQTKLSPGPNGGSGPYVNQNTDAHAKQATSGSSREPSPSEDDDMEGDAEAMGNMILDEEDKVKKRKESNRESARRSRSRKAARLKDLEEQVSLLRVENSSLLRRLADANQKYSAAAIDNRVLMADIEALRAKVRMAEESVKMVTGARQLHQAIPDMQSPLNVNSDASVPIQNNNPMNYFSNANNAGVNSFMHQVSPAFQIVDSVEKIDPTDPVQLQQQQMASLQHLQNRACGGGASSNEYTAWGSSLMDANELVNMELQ
How it was run: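 The binding signal for each feature is its fluorescence intensity in arbitrary units. An Axon 4000B scanner was used to read a custom Agilent array that had been made double-stranded with Cy5-dUTP primer extension, blocked with 2% BSA, incubated at 25 °C for 1 h with 200 nM protein in PBS, 2% BSA, salmon testes DNA and 50 µM zinc acetate, and washed. The protein was an N-terminal polyhistidine–DsRed transcription factor fusion from E. coli BL21-CodonPlus, purified on Ni–NTA.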

Row | Sequence | binding signal
1 | TGAGCAGGACCTTGTCCTGCGCCACGTGGAAGAGCGCTCCCGGAGTCACCTAGTGCAG | 12000 fluorescence intensity (a.u.)
2 | GTGAGTGTGGTGTGTGCACGCCTGATCCTATACTCGAAATCGGAGTCACCTAGTGCAG | 3430 fluorescence intensity (a.u.)
3 | TTCAGCCCGTGACACTGATGTATTTGTAGTGTTGTGAGCCCGGAGTCACCTAGTGCAG | 3520 fluorescence intensity (a.u.)
4 | ATAGCCCTATACTCACTGACATGTGGACCCCACTTAAATACGGAGTCACCTAGTGCAG | 3360 fluorescence intensity (a.u.)
5 | CCGCACAGAGCACACGCCTCCCCGCACGCCACCGTGACGACGGAGTCACCTAGTGCAG | 18700 fluorescence intensity (a.u.)
6 | TTAGCTGTGTGTGTTCTTACGCTTGGGTTGGCGATTGAATCGGAGTCACCTAGTGCAG | 3830 fluorescence intensity (a.u.)
7 | CCACACACGGCCGTCGCTGACTCACCGATGCACCATCGCCCGGAGTCACCTAGTGCAG | 17500 fluorescence intensity (a.u.)
8 | GATTCACAACGATTGCTCTGTTTTGCGTGACACAAGGGCTCGGAGTCACCTAGTGCAG | 7400 fluorescence intensity (a.u.)
9 | TTCTAAGAAATCTATATATAGATTTATTATTATTATTTTGCGGAGTCACCTAGTGCAG | 8080 fluorescence intensity (a.u.)
10 | TATCTAAATGACATGACTCACTTAGATCCTAATAGGACATCGGAGTCACCTAGTGCAG | 3370 fluorescence intensity (a.u.)
11 | GCCCCGCGGCTTCCGGCTGCCGTCGCCGCGAGCCCCGTGGCGGAGTCACCTAGTGCAG | 5050 fluorescence intensity (a.u.)
12 | CACCCGATCCACGTGCCTCGTGGGGTTGGTTTGGTTTGGACGGAGTCACCTAGTGCAG | 5250 fluorescence intensity (a.u.)
13 | CATCATCCGCGCGCGTGTGGACCAGGACGCGCGGGCGGGGCGGAGTCACCTAGTGCAG | 3710 fluorescence intensity (a.u.)
14 | GAGGAGATGACCGTAGCAGTAGTAATGCAAGGCTGGAACGCGGAGTCACCTAGTGCAG | 3660 fluorescence intensity (a.u.)
15 | TATATATTTATAACTCTAACATAGACACACATATATAATTCGGAGTCACCTAGTGCAG | 7580 fluorescence intensity (a.u.)
16 | ACATACAGCGTGGCACGAGGATATGCCCCTGCATCCGGTGCGGAGTCACCTAGTGCAG | 5680 fluorescence intensity (a.u.)
17 | AGAATAATCTTTGGGCTGCATAACCTGGAACTCATTTCGTCGGAGTCACCTAGTGCAG | 33400 fluorescence intensity (a.u.)
18 | GTTCTCTCCCCGTGGTCCCGAGTCCCGACGGCTGCTGCCACGGAGTCACCTAGTGCAG | 3230 fluorescence intensity (a.u.)
19 | ATCCGACGGCGCCCCGCCCCTCCACGTCGCCGTCGTCTTCCGGAGTCACCTAGTGCAG | 6920 fluorescence intensity (a.u.)
20 | CGCGAGGGCGTGGTGGTGGTGGTGGTCGTCATCATCGACGCGGAGTCACCTAGTGCAG | 4150 fluorescence intensity (a.u.)
21 | GAATTGAGCTGAGTGCCACGTCAGTTGAAACCGCCGTCCACGGAGTCACCTAGTGCAG | 11800 fluorescence intensity (a.u.)

Row | Sequence | binding signal
22 | AAACGCTACTACCCCTCCGCCACAGCGTCCACACCCGCGCCGGAGTCACCTAGTGCAG | 25600 fluorescence intensity (a.u.)
23 | AAACGGAAAACAAAAGTTAATTCCTCAGTAACTCTCCACCCGGAGTCACCTAGTGCAG | 3500 fluorescence intensity (a.u.)
24 | CAATATATTTATTGTATATGTATCTTTAGAAGCTGATTCACGGAGTCACCTAGTGCAG | 4160 fluorescence intensity (a.u.)
25 | GCGTTTCTTGGACGTGAGGTGGATGAGGCTCGCCACCGGCCGGAGTCACCTAGTGCAG | 4030 fluorescence intensity (a.u.)
26 | GGGGACGCAGGAGGAGGTGGGTGGGTCGAGCTCGCTTGCGCGGAGTCACCTAGTGCAG | 3300 fluorescence intensity (a.u.)
27 | TGGTGTTTGTTTTGTACCGCCACCTCAGGAATCAAAGCCCCGGAGTCACCTAGTGCAG | 6630 fluorescence intensity (a.u.)
28 | AGTGAAGACACTCGCCAAGAATCTCAAGGAAAATACCAGTCGGAGTCACCTAGTGCAG | 3430 fluorescence intensity (a.u.)
29 | TCGTCGACTACGTGTTGGTGTTTCATGCCGCCAAGTCGACCGGAGTCACCTAGTGCAG | 5250 fluorescence intensity (a.u.)
30 | AGCCTCTTCCCGCGGTCCCGCCCAGTTCGTTGGCGTGTACCGGAGTCACCTAGTGCAG | 10600 fluorescence intensity (a.u.)
31 | ATCAGAACCGCCACTCAAGTTTCAGTAGTTTGGTCTTGTACGGAGTCACCTAGTGCAG | 3790 fluorescence intensity (a.u.)
32 | ACTGTAGCATGACTAAAGTGTGACATGGCAAAATGTGGCACGGAGTCACCTAGTGCAG | 13300 fluorescence intensity (a.u.)
33 | GTACTACAGTACGATATTGCACGAGAGAATTCCACGTCAGCGGAGTCACCTAGTGCAG | 26900 fluorescence intensity (a.u.)
34 | CGGGCACGTGCCACGACGACGCCCTATCCACCACACTATCCGGAGTCACCTAGTGCAG | 5810 fluorescence intensity (a.u.)
35 | TAATTAGTATACTATGACATCAGTAGATATATTATGACACCGGAGTCACCTAGTGCAG | 3780 fluorescence intensity (a.u.)
36 | AACCCTGTCCACGTCTGCTCGTCGCCATGGCCTCTCGTTCCGGAGTCACCTAGTGCAG | 9150 fluorescence intensity (a.u.)
37 | TACGATGCACGTCATGTTATCCCGACATCATGTGGTTGATCGGAGTCACCTAGTGCAG | 7800 fluorescence intensity (a.u.)
38 | AGGCCGGCGACGAACCTCGATCTCGATCCGCTCGCCGCCGCGGAGTCACCTAGTGCAG | 5070 fluorescence intensity (a.u.)
39 | CCCCGCGCGCGACACGTGTACAGTCGCACGCAGGAGGGTGCGGAGTCACCTAGTGCAG | 13000 fluorescence intensity (a.u.)
40 | CTTTACATTTTATTTTGTCCACATAACTCCTCTAAATATTCGGAGTCACCTAGTGCAG | 3470 fluorescence intensity (a.u.)
41 | TCACTACTAGTGATGTCATTAGCCTCGAGATGGGTGATATCGGAGTCACCTAGTGCAG | 4680 fluorescence intensity (a.u.)
42 | CATCATGCCCATCCAGCGTGACATCAAAAGCGGCGTCCTACGGAGTCACCTAGTGCAG | 3490 fluorescence intensity (a.u.)

Retrieved one by one from the list above, 3 records:
Row | Sequence | binding signal
38 | AGGCCGGCGACGAACCTCGATCTCGATCCGCTCGCCGCCGCGGAGTCACCTAGTGCAG | 5070 fluorescence intensity (a.u.)
32 | ACTGTAGCATGACTAAAGTGTGACATGGCAAAATGTGGCACGGAGTCACCTAGTGCAG | 13300 fluorescence intensity (a.u.)
23 | AAACGGAAAACAAAAGTTAATTCCTCAGTAACTCTCCACCCGGAGTCACCTAGTGCAG | 3500 fluorescence intensity (a.u.)
